Reference: patent US12370166B2, “Pentadecanoylcarnitine for treatment of conditions related to the quality of aging and longevity” (EPITRACKER, INC., priority 2021, dated 2025)

Experiment: Modified fish diet study: serum metabolome, random forest ranking of biochemicals
Type: in vivo, Bottlenose dolphins (Tursiops truncatus)
Details: Month 1, Month 3 and Month 6, p<0.0001

Structure (SMILES)	Serum concentration, case versus control groups
CCCCCCCCCCCCCCC(=O)O[C@H](CC(=O)[O-])C[N+](C)(C)C [Pentadecanoylcarnitine, pentadecanoylcarnitine]	higher
CCCCCCCCCCCCCCC(=O)O [Pentadecanoic acid (C15:0), Pentadecanoic acid]	higher
